Among the data in the supplement of paper PMC9226226 are relative cell density values, retold here.

Molecules are shown by their SMILES. “And” between values parts separate entries of the source, which are not always exact repeats. Equal values may be shown once. Some of the results follow. Some well-known active drugs show little effect in this data set, so a weak value is uncertain.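 The cells are human mesenchymal stem cells that lack the Werner syndrome gene and age prematurely. Growth was tracked by automated live-cell imaging in three biological repeats, and the twenty drugs that most raised growth over vehicle were taken forward, with no fixed cutoff stated.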

The test system of the assay is Werner syndrome hMSCs (WRN-/-). Description: relative cell density (fold change vs vehicle control); higher = more proliferation (geroprotective). The following applies: concentration (umol/L): 1, 6 days.

`Cc1cn(-c2cc(NC(=O)c3ccc(C)c(Nc4nccc(-c5cccnc5)n4)c3)cc(C(F)(F)F)c2)cn1` had a relative cell density (vehicle: DMSO) of 1.09. Same read-out and setting: as for `Cc1cc(O)cc(C)c1Cl`, the figure is 0.692; as for `COc1nccnc1NS(=O)(=O)c1ccc(N)cc1`, 1.33.

Regarding `CC(=O)c1c(C)c2cnc(Nc3ccc(N4CCNCC4)cn3)nc2n(C2CCCC2)c1=O`, the relative cell density (vehicle: Water) is 0.621 and 1.03. Compound `CC(C)OC(=O)C(C)(C)Oc1ccc(C(=O)c2ccc(Cl)cc2)cc1` yielded a relative cell density (vehicle: DMSO) of 1.15. Still for that read-out and setting: as for `OCCOc1ccc(/C(=C(/CCCl)c2ccccc2)c2ccccc2)cc1`, the figure is 0.786; as for `Cc1ccc(NC(=O)C2(c3ccc4c(c3)OC(F)(F)O4)CC2)nc1-c1cccc(C(=O)O)c1`, 1.05. `CNC(=O)c1ccc(Nc2ncc(C(F)(F)F)c(NCc3nccnc3N(C)S(C)(=O)=O)n2)cc1` yielded a relative cell density (vehicle: Water) of 0.14. In the case of `Cc1cc2c(s1)Nc1ccccc1N=C2N1CCN(C)CC1`, the relative cell density (vehicle: DMSO) stood at 1.38.

For the compound `O=S(=O)(O)Oc1ccc(C(c2ccc(OS(=O)(=O)O)cc2)c2ccccn2)cc1`, the relative cell density (vehicle: DMSO) came to 0.779. The same measure, in the same setting: with `CSc1nc2cc(Cl)c(Oc3cccc(Cl)c3Cl)cc2[nH]1` the figure was 0.52; with `NC(=O)c1cnccn1`, 1.03. Still for that read-out and setting: as for `CO[C@@H]1[C@H](OC(=O)/C=C/C=C/C=C/C=C/C(=O)O)CC[C@]2(CO2)[C@H]1[C@@]1(C)O[C@@H]1CC=C(C)C`, the figure is 0.644; as for `Cn1cnc2c(F)c(Nc3ccc(Br)cc3F)c(C(=O)NOCCO)cc21`, 1.12. The same measure, in the same setting: as for `CC(=O)O[C@H]1C(=O)[C@@]2(C)[C@H]([C@H](OC(=O)c3ccccc3)[C@]3(O)C[C@H](OC(=O)[C@H](O)[C@@H](NC(=O)c4ccccc4)c4ccccc4)C(C)=C1C3(C)C)[C@]1(OC(C)=O)CO[C@@H]1C[C@@H]2O`, the figure is 0.465; as for `COc1cccc2c1C(=O)c1c(O)c3c(c(O)c1C2=O)C[C@@](O)(C(=O)CO)C[C@@H]3O[C@H]1C[C@H](N)[C@@H](O)[C@H](C)O1`, 0.0251. Under “vehicle: DMSO”, `CCCN(CCC)CCc1cccc2c1CC(=O)N2` had a relative cell density of 1.48. The same measure, in the same setting: as for `O[C@H]1[C@H](O)[C@@H](O)[C@H](O)[C@@H](O)[C@H]1O`, the figure is 1.51.

In turn, `COc1ccc2cc([C@H](C)C(=O)O)ccc2c1` had a relative cell density (vehicle: DMSO) of 0.946. Same read-out and setting: as for `C[C@]12CCC(=O)C=C1[C@@H]1C[C@@H]1[C@H]1[C@@H]3[C@@H]4C[C@@H]4[C@@]4(CCC(=O)O4)[C@@]3(C)CC[C@@H]12`, the figure is 1.08; as for `Cc1ncc([N+](=O)[O-])n1CC(C)O` (stereo unspecified), 1.25; as for `COC(=O)NC(C(=O)N1CCCC1c1ncc(-c2ccc(-c3ccc(-c4cnc(C5CCCN5C(=O)C(NC(=O)OC)C(C)C)[nH]4)cc3)cc2)[nH]1)C(C)C` (stereo unspecified), 1.09. Still for that read-out and setting: as for `Cc1ccc(-n2nc(C(C)(C)C)cc2NC(=O)NCc2cc(F)ccc2Oc2ccc3c(cnn3CCO)c2)cc1`, the figure is 1.36. Take `O=c1n(CCCN2CCN(c3cccc(Cl)c3)CC2)nc2ccccn12`: the relative cell density (vehicle: Water) came to 0.855. Turning to `O=C(O)c1cc(=O)[nH]c(=O)[nH]1`, the relative cell density (vehicle: DMSO) was determined as 1.2. Still for that read-out and setting: with `CC1(C)S[C@@H]2[C@H](NC(=O)[C@H](N)c3ccccc3)C(=O)N2[C@H]1C(=O)O` the figure was 1.02 and 1.06. Same read-out and setting: with `C=C[C@H]1CN2CC[C@H]1C[C@H]2[C@H](O)c1ccnc2ccc(OC)cc12` the figure was 1.13; with `Nc1c(CC(=O)O)cccc1C(=O)c1ccc(Br)cc1`, 0.883.

Turning to `CC(C)(C)c1nc(-c2cccc(NS(=O)(=O)c3c(F)cccc3F)c2F)c(-c2ccnc(N)n2)s1`, under “vehicle: DMSO”, the relative cell density was 0.527. Take `C[C@H]1O[C@@H](n2cc(F)c(=O)[nH]c2=O)[C@H](O)[C@@H]1O`: for the setting “vehicle: DMSO”, the relative cell density was determined as 1.07. On the same count and under the same terms, as for `COc1c(C)c2c(c(O)c1C/C=C(\C)CCC(=O)O)C(=O)OC2`, the figure is 1.29; as for `O=C(NCCN1CCOCC1)c1ccc(Cl)cc1`, 0.924.

As to `C[C@H](Cc1cc2c(c(C(N)=O)c1)N(CCCO)CC2)NCCOc1ccccc1OCC(F)(F)F`, for the setting “vehicle: DMSO”, the relative cell density turned out to be 0.979. The same measure, in the same setting: with `CNCCCC12CCC(c3ccccc31)c1ccccc12` the figure was 1.2; with `CC[C@H]1OC(=O)C[C@@H](O)[C@H](C)[C@@H](O[C@@H]2O[C@H](C)[C@@H](O)[C@H](N(C)C)[C@H]2O)[C@@H](CCN2C[C@H](C)C[C@H](C)C2)C[C@@H](C)C(=O)/C=C/C(C)=C/[C@@H]1CO[C@@H]1O[C@H](C)[C@@H](O)[C@@H](OC)[C@H]1OC`, 1.01.

Regarding `CO/N=C(\C(=O)N[C@@H]1C(=O)N2C(C(=O)[O-])=C(C[N+]3(C)CCCC3)CS[C@H]12)c1csc(N)n1`, the relative cell density (vehicle: DMSO) was determined as 0.515. Same read-out and setting: as for `OC(c1cc(C(F)(F)F)nc2c(C(F)(F)F)cccc12)C1CCCCN1` (stereo unspecified), the figure is 0.979; as for `CCCCCC(=O)O[C@]1(C(C)=O)CC[C@H]2[C@@H]3CCC4=CC(=O)CC[C@]4(C)[C@H]3CC[C@@]21C`, 1.34. In the case of `Cc1cc(C)cc(OCC2CNC(=O)O2)c1` (stereo unspecified), for the setting “vehicle: DMSO”, the relative cell density was found to be 1.19. The same measure, in the same setting: with `CC(=O)O[C@H]1C[C@@H]2CC[C@@H]3[C@H](CC[C@@]4(C)[C@H]3C[C@H]([N+]3(C)CCCCC3)[C@@H]4OC(C)=O)[C@@]2(C)C[C@@H]1N1CCCCC1` the figure was 1.02; with `C[C@@H](O)[C@H]1C(=O)N2C(C(=O)O)=C(S[C@@H]3CN[C@H](C(=O)N(C)C)C3)[C@H](C)[C@H]12`, 1.21; with `C=C1CCN([C@H](C)[C@](O)(Cn2cncn2)c2ccc(F)cc2F)CC1`, 1.05. On the same count and under the same terms, as for `CCN(CC)C(=O)/C(C#N)=C/c1cc(O)c(O)c([N+](=O)[O-])c1`, the figure is 1.43.

In turn, `C[C@@H]1O[C@@H](OC[C@H]2O[C@@H](Oc3c(-c4ccc(OCCO)c(OCCO)c4)oc4cc(OCCO)cc(O)c4c3=O)[C@H](O)[C@@H](O)[C@@H]2O)[C@H](O)[C@H](O)[C@H]1O` returned a relative cell density (vehicle: DMSO) of 1.35. The same measure, in the same setting: with `C[C@]12C=CC(=O)C=C1CC[C@H]1[C@@H]3C[C@@H](O)[C@](O)(C(=O)CO)[C@@]3(C)C[C@H](O)[C@@]12F` the figure was 1.12; with `CC1(C)O[C@@H]2C[C@H]3[C@@H]4CCC5=CC(=O)CC[C@]5(C)[C@@]4(F)[C@@H](O)C[C@]3(C)[C@]2(C(=O)CCl)O1`, 1.35; with `C[C@@H](c1nc(-c2ccc(C#N)cc2)cs1)[C@](O)(Cn1cncn1)c1cc(F)ccc1F`, 0.839. `CC[C@H](C)C(=O)O[C@H]1C[C@@H](C)C=C2C=C[C@H](C)[C@H](CC[C@@H]3C[C@@H](O)CC(=O)O3)[C@H]21`: the relative cell density (vehicle: DMSO) stood at 0.357.

As for `Clc1ccc(C(Cn2ccnc2)OCc2ccc(Sc3ccccc3)cc2)c(Cl)c1` (stereo unspecified), the relative cell density (vehicle: DMSO) worked out at 1.09. Regarding `CCN(CC)CCOC(=O)c1ccc(N)cc1`, the relative cell density (vehicle: DMSO) was 1.36 and 0.895. The compound `COc1cc(C2Oc3cc([C@H]4Oc5cc(O)cc(O)c5C(=O)[C@@H]4O)ccc3OC2CO)ccc1O` (stereo partly specified) came in with a relative cell density (vehicle: DMSO) of 1.21.
